PubChem BioAssay AID190 (DTP/NCI, 2004)
The list shows only some results of the screen, not a fair sample: it is rich in T/C values a quarter to a half above the control, in often repeated tests (any T/C) and in doses without a T/C. Further doses and runs are listed elsewhere. T/C is the treated group as % of the vehicle group. Some entries give survivors of the animals treated and no T/C: the source files T/C as zero there, which appears to mark a toxic dose or a test without result, not a measured value. Some survivor counts are full or nearly so, which does not show that the dose was tolerated: the source hardly ever lists a survival T/C far under the control, and the zero likely stands for such cases as well. Survivors were counted at the toxicity check, usually on the fifth day, unless a day is given; later deaths do not show. Schedule codes are those of the source, read here as Q, the interval in days (D) or hours (H), X, the number of doses. Signs of the kind (2×) give the number of equal values in this list. Some entries hold several experiments; their values stand side by side, smallest first. Where survival is the endpoint, the PubChem record calls one and a half times the control and up active, and a quarter to a half above the control has no call in these data; cut-offs in other NCI protocols can differ. Some T/C values are followed by the survivors on the day toxicity was checked, most often the fifth; where none is given, no animal had died by that day.

System: AKR/Lw mice, AKR lymphoma ip, median survival T/C
Experiment: NCI In Vivo Anticancer Drug Screen. Data for tumor model Lymphoma AKR (Transplanted) (intraperitoneal) in AKR/Lw mice
Settings: T/C endpoint: median survival time, higher T/C = longer survival
Experimental: The antitumor activity of compounds was measured in mice bearing transplantable tumors. Survival or tumor size were measured and the results are expressed as the measurement made in the treated group (T) divided by the measurement made in the vehicle treated control group (C). The tumor model used in this assay is Lymphoma AKR (Transplanted) (intraperitoneal) in AKR/Lw mice

[1] = dose: 10.0 mg/kg/injection, schedule: Q01DX009 (ip), vehicle: saline
[2] = dose: 12.5 mg/kg/injection, schedule: Q04DX003 (ip), vehicle: saline
[3] = dose: 20.0 mg/kg/injection, schedule: Q01DX009 (ip), vehicle: saline
[4] = dose: 25.0 mg/kg/injection, schedule: Q01DX009 (ip), vehicle: saline
[5] = dose: 50.0 mg/kg/injection, schedule: Q01DX009 (ip), vehicle: saline
[6] = dose: 50.0 mg/kg/injection, schedule: Q04DX003 (ip), vehicle: saline
[7] = dose: 75.0 mg/kg/injection, schedule: Q04DX003 (ip), vehicle: saline
[8] = dose: 100.0 mg/kg/injection, schedule: Q01DX001 (ip), vehicle: saline
[9] = dose: 100.0 mg/kg/injection, schedule: Q04DX003 (ip), vehicle: saline
[10] = dose: 200.0 mg/kg/injection, schedule: Q01DX001 (ip), vehicle: saline
[11] = dose: 200.0 mg/kg/injection, schedule: Q04DX003 (ip), vehicle: saline
[12] = dose: 400.0 mg/kg/injection, schedule: Q01DX001 (ip), vehicle: saline
[13] = dose: 400.0 mg/kg/injection, schedule: Q01DX001 (ip), vehicle: Klucel (hydroxypropylcellulose) (HPC)
[14] = dose: 50.0 mg/kg/injection, schedule: Q04DX003 (ip), vehicle: Klucel (hydroxypropylcellulose) (HPC)
[15] = dose: 100.0 mg/kg/injection, schedule: Q04DX003 (ip), vehicle: Klucel (hydroxypropylcellulose) (HPC)

For CN(C)C(=O)c1cccc(COc2ccc(N3C(N)=NC(N)=NC3(C)C)cc2Cl)c1, the T/C (dose: 2.5 mg/kg/injection, schedule: Q01DX009 (ip), vehicle: saline) was 94, 131 [9 of 10 alive], 142, 143 % of control, the survivor count (dose: 3.1 mg/kg/injection, schedule: Q01DX005 (ip), vehicle: saline) was 4 of 10 and the T/C (dose: 3.1 mg/kg/injection, schedule: Q04DX003 (ip), vehicle: saline) was 141 % of control. For the same molecule, the T/C (dose: 5.0 mg/kg/injection, schedule: Q01DX009 (ip), vehicle: saline) was 112, 121 [9 of 10 alive], 129, 133 % of control, the survivor count (dose: 6.2 mg/kg/injection, schedule: Q01DX005 (ip), vehicle: saline) was 4 of 10 and the T/C [1] was 121, 133, 136, 150 % of control. The survivor count [1] was 10 of 10, the survivor count (dose: 12.5 mg/kg/injection, schedule: Q01DX005 (ip), vehicle: saline) was 4 of 10 and the T/C (dose: 12.5 mg/kg/injection, schedule: Q01DX009 (ip), vehicle: saline) was 97 [9 of 10 alive], 100, 111, 121, 128 % of control. For the same molecule, the T/C [2] was 105, 167, 169 % of control, the survivor count [2] was 5 of 10 and the T/C [3] was 128 % of control. The survivor count [3] was 10 of 10, the survivor count (dose: 25.0 mg/kg/injection, schedule: Q01DX005 (ip), vehicle: saline) was 10 of 10 and the T/C [4] was 97 [8 of 10 alive], 97 [9 of 10 alive], 119 [9 of 10 alive], 157 % of control. For the same molecule, the survivor count [4] was 5 of 10, the T/C (dose: 25.0 mg/kg/injection, schedule: Q04DX003 (ip), vehicle: saline) was 100 [7 of 10 alive], 102 (2×), 105 [9 of 10 alive], 117, 144, 161 % of control and the survivor count (dose: 30.0 mg/kg/injection, schedule: Q01DX009 (ip), vehicle: saline) was 10 of 10. The survivor count (dose: 40.0 mg/kg/injection, schedule: Q01DX009 (ip), vehicle: saline) was 10 of 10, the T/C (dose: 50.0 mg/kg/injection, schedule: Q01DX001 (ip), vehicle: saline) was 103, 104, 111 [8 of 10 alive], 115 % of control and the survivor count (dose: 50.0 mg/kg/injection, schedule: Q01DX005 (ip), vehicle: saline) was 10 of 10. The survivor count [5] was 5 of 10 and 10 of 10, the T/C [6] was 100 [8 of 10 alive], 105, 118, 120 [9 of 10 alive], 133 % of control and the survivor count [6] was 6 of 10 and 9 of 10. For the same molecule, the T/C [7] was 116, 150 [9 of 10 alive], 155 % of control [8 of 10 alive], the survivor count [7] was 1 of 10, 6 of 10, 8 of 10 and the T/C [8] was 100 and 118 % of control [7 of 10 alive]. For the same molecule, the survivor count [8] was 1 of 10, the survivor count [9] was 0 of 10, 3 of 10, 4 of 10, 10 of 10 and the survivor count (dose: 150.0 mg/kg/injection, schedule: Q04DX003 (ip), vehicle: saline) was 4 of 10. The T/C [10] was 106 and 118 % of control [9 of 10 alive], the survivor count [10] was 0 of 10 and the survivor count [11] was 0 of 10 and 3 of 10. The survivor count (dose: 300.0 mg/kg/injection, schedule: Q01DX001 (ip), vehicle: saline) was 0 of 10, the survivor count (dose: 300.0 mg/kg/injection, schedule: Q04DX003 (ip), vehicle: saline) was 5 of 10 and the survivor count [12] was 0 of 10. The survivor count (dose: 600.0 mg/kg/injection, schedule: Q01DX001 (ip), vehicle: saline) was 0 of 10.

In the case of CN(C)CCCNC(=O)Nc1ccccc1, the survivor count [13] is reported as 0 of 10.

In the case of O=C(O)/C=C/C(=O)Nc1cccc(Oc2ccc([N+](=O)[O-])cc2[N+](=O)[O-])c1, the survivor count [12] is reported as 8 of 10.

For NC(CSC(c1ccccc1)(c1ccccc1)c1ccccc1)C(=O)O (stereo not drawn), the T/C (dose: 2.5 mg/kg/injection, schedule: Q01DX009 (ip), vehicle: Klucel (hydroxypropylcellulose) (HPC)) was 135 and 137 % of control, the T/C (dose: 5.0 mg/kg/injection, schedule: Q01DX009 (ip), vehicle: Klucel (hydroxypropylcellulose) (HPC)) was 137 % of control [9 of 10 alive] and the T/C (dose: 10.0 mg/kg/injection, schedule: Q01DX009 (ip), vehicle: Klucel (hydroxypropylcellulose) (HPC)) was 126 and 137 % of control [9 of 10 alive]. For the same molecule, the survivor count (dose: 18.0 mg/kg/injection, schedule: Q01DX009 (ip), vehicle: saline) was 10 of 10, the survivor count (dose: 25.0 mg/kg/injection, schedule: Q04DX003 (ip), vehicle: Klucel (hydroxypropylcellulose) (HPC)) was 10 of 10 and the survivor count (dose: 37.5 mg/kg/injection, schedule: Q01DX009 (ip), vehicle: saline) was 10 of 10. The survivor count (dose: 40.0 mg/kg/injection, schedule: Q01DX009 (ip), vehicle: Klucel (hydroxypropylcellulose) (HPC)) was 10 of 10, the survivor count [5] was 10 of 10 (2×) and the T/C [14] was 100 (2×), 100 [8 of 10 alive], 115, 135 % of control. The survivor count [14] was 10 of 10, the survivor count (dose: 75.0 mg/kg/injection, schedule: Q01DX009 (ip), vehicle: saline) was 10 of 10 and the survivor count (dose: 80.0 mg/kg/injection, schedule: Q01DX009 (ip), vehicle: Klucel (hydroxypropylcellulose) (HPC)) was 9 of 10. The survivor count (dose: 100.0 mg/kg/injection, schedule: Q01DX009 (ip), vehicle: saline) was 8 of 10 and 9 of 10 (2×), the T/C [15] was 89 [7 of 10 alive], 118 [9 of 10 alive], 137 % of control and the survivor count [15] was 10 of 10. The T/C [9] was 132 % of control, the survivor count (dose: 200.0 mg/kg/injection, schedule: Q01DX001 (ip), vehicle: Klucel (hydroxypropylcellulose) (HPC)) was 8 of 10 and the survivor count [10] was 7 of 10. For the same molecule, the survivor count (dose: 200.0 mg/kg/injection, schedule: Q04DX003 (ip), vehicle: Klucel (hydroxypropylcellulose) (HPC)) was 4 of 10, 7 of 10, 8 of 10, the survivor count [11] was 10 of 10 and the survivor count [13] was 4 of 10. For the same molecule, the survivor count [12] was 4 of 10, the survivor count (dose: 400.0 mg/kg/injection, schedule: Q04DX003 (ip), vehicle: saline) was 1 of 10 and the survivor count (dose: 600.0 mg/kg/injection, schedule: Q01DX001 (ip), vehicle: Klucel (hydroxypropylcellulose) (HPC)) was 4 of 10.
